We go through six molecules from patent US20120149881A1.

No constants are given. Whether binding was seen depends on the method and setting. Sequences can lack the tags named with a protein.

For this experiment, the target named is U266 IgE (Homo sapiens). The experiment in a line: ELISA on coated antigen, relative OD450/650.

B1: humanized anti-IgE/M1′ antibody 26A11.v6 (antibody, V domains shown)
VH: EVQLVESGGGLVQPGGSLRLSCAASGYTFTDYYIMWVRQAPGKGLEWVGDINPNNYDTSYNQKFKGRFTISADTSKNTAYLQMNSLRAEDTAVYYCASKAYWGQGTLVTVSS
VL: DIQMTQSPSSLSASVGDRVTITCRSSQDISNYLNWYQQKPGKAPKLLIYSTSRLHSGVPSRFSGSGSGTDFTLTISSLQPEDFATYYCQQGHTLPWTFGQGTKVEIKR
Consider B1, for which the binding entry is recorded as “no binding”.

B2: humanized anti-IgE/M1′ antibody 7A6.v1 (antibody, V domains shown)
VH: EVQLVESGGGLVQPGGSLRLSCAASGYTFIDYEMHWVRQAPGKGLEWVGAIDPETGTTAYNQKFKGRFTISADTSKNTAYLQMNSLRAEDTAVYYCTRLRPHYDYDNAMDSWGQGTLVTVSS
VL: DIQMTQSPSSLSASVGDRVTITCKSSQTLLYSTNQKNYLAWYQQKPGKAPKLLIYWASTRESGVPSRFSGSGSGTDFTLTISSLQPEDFATYYCQQYYSYPYTFGQGTKVEIKR
In the case of B2, the binding entry is “no binding”.

B3: murine anti-IgE/M1′ antibody 47H4 (antibody, V domains shown)
VH: EVKLVESGGGLVQPGGSRKLSCAASGFTFSDYGMAWVRQAPGKGPEWVAFISDLAYTIYYADTVTGRFTISRENAKNTLYLEMSSLRSEDTALYYCARDNWDAMDYWGQGTSVTVSS
VL: DIVLTQTPLSLPVSLGDQASISCRSSQSLVHNNGNTYLHWYLQKPGQSPKLLIYKVSNRFSGVPDRFSGSGSGTDFTLKISRLEAEDLGVYFCSQNTLVPWTFGGGTKVEIKR
Take B3: the binding entry is “no binding”.

B4: humanized anti-IgE/M1′ antibody 47H4.v5 (antibody, V domains shown)
VH: EVQLVESGGGLVQPGGSLRLSCAASGFTFSDYGIAWVRQAPGKGLEWVAFISDLAYTIYYADTVTGRFTISRDNSKNTLYLQMNSLRAEDTAVYYCARDNWDAMDYWGQGTLVTVSS
VL: DIQMTQSPSSLSASVGDRVTITCRSSQSLVHNNANTYLHWYQQKPGKAPKLLIYKVSNRFSGVPSRFSGSGSGTDFTLTISSLQPEDFATYYCSQNTLVPWTFGQGTKVEIKR
Take B4: the binding entry is “no binding”.

B5: murine anti-IgE/M1′ antibody 7A6 (antibody, V domains shown)
VH: QVQLQQSGAELVRPGASVTLSCKASGYTFIDYEMHWVKQTPVHGLEWIGAIDPETGTTAYNQKFKGKATLTAAKSSSTAYMELRSLTSEDSAVYYCTRLRPHYDYDNAMDSWGQGTTLTVSS
VL: DIVMSQSPSSLTVSVGEKVTLSCKSSQTLLYSTNQKNYLAWYQQKPGQSPKLLIYWASTRESGVPDRFTGSGSGTDFTLTISSVKAEDLAVYYCQQYYSYPYTFGGGTKVEIKR
For the molecule B5, the binding result is reported as “no binding”.

B6: murine anti-IgE/M1′ antibody 26A11 (antibody, V domains shown)
VH: EVQLQQSGPELVKPGASVKMSCKASGYTFTDYYMMWVKQSHGKSLEWIGDINPNNYDTSYNQKFKGKATLTVDKSSSTAYIQLNSLTSEDSAVYYCASKAYWGQGTLVTVSA
VL: DIQMTQTTSSLSASLGDRVTITCRSSQDISNSLNWYQQKPDGPVKLLIYSTSRLHSGVPSRFSGSGSGTDYSLTISNLEQEDLATYFCQQGHTLPWTFGGGTKVEIKR
As to B6, the binding entry is given as “no binding”.
